Columns and labels:
[1] = Corrosion inhibitors protecting carbon steel against performic acid corrosion (mpy, % protection); settings: PFA:Peroxide of 38:1
[2] = Dissolved oxygen in treated produced water (dissolved oxygen probe)
[3] = Performance of corrosion inhibitor in sea water and produced water systems (% protection); settings: 200 ppm active performic acid, 50 ppm corrosion inhibitor (PFA: no inhibitor)
Procedure: 200 ppm active of performic acid was added. 50 ppm of corrosion inhibitor was added for corrosion protection. % protection was plotted by comparison of the corrosion rate in the presence of corrosion inhibitor to the corrosion rate with no corrosion inhibitor addition (PFA or PFA-PW) as shown in Table 30.

[4] = relative to baseline of the cell
[5] = 500.0 ppm of prod (29.0 ppm PFA, 0.0 ppm H2O2)
[6] = 1000.0 ppm of prod (58.0 ppm PFA, 0.0 ppm H2O2)
[7] = 1500.0 ppm of prod (87.0 ppm PFA, 0.0 ppm H2O2)
[8] = 2000.0 ppm of prod (116.0 ppm PFA, 0.0 ppm H2O2)
[9] = 4000.0 ppm of prod (232.0 ppm PFA, 0.0 ppm H2O2)
[10] = 8000.0 ppm of prod (464.0 ppm PFA, 0.0 ppm H2O2)

O=COO [PFA, peroxyformic acid]
2 hrs after dosing, mpy [1]: 236.2 mpy | 8 hrs after dosing, mpy [1]: 243.1 mpy | Last hour of testing, mpy [1]: 419.4 mpy | 2 hrs after dosing, % Protection [1, 4]: −631.1% | 8 hrs after dosing, % Protection [1, 4]: −652.3% | Last hour of testing, % Protection [1, 4]: −1197.9% | Concentration of oxygen detected, Expt1 ppm O2 [2, 5]: 5.4 ppm | Concentration of oxygen detected, Expt2 ppm O2 [2, 5]: 5.4 ppm | Concentration of oxygen detected, avg ppm O2 [2, 5]: 5.4 ppm | Increase from baseline of oxygen, Expt1 ppm O2 [2, 5]: −2.6 ppm | Increase from baseline of oxygen, Expt2 ppm O2 [2, 5]: −3.2 ppm | Increase from baseline of oxygen, avg ppm O2 [2, 5]: −2.9 ppm | Concentration of oxygen detected, Expt1 ppm O2 [2, 6]: 6.2 ppm | Concentration of oxygen detected, Expt2 ppm O2 [2, 6]: 4.9 ppm | Concentration of oxygen detected, avg ppm O2 [2, 6]: 5.5 ppm | Increase from baseline of oxygen, Expt1 ppm O2 [2, 6]: −1.8 ppm | Increase from baseline of oxygen, Expt2 ppm O2 [2, 6]: −3.7 ppm | Increase from baseline of oxygen, avg ppm O2 [2, 6]: −2.8 ppm | Concentration of oxygen detected, Expt1 ppm O2 [2, 7]: 6.5 ppm | Concentration of oxygen detected, Expt2 ppm O2 [2, 7]: 5.2 ppm | Concentration of oxygen detected, avg ppm O2 [2, 7]: 5.8 ppm | Increase from baseline of oxygen, Expt1 ppm O2 [2, 7]: −1.5 ppm | Increase from baseline of oxygen, Expt2 ppm O2 [2, 7]: −3.4 ppm | Increase from baseline of oxygen, avg ppm O2 [2, 7]: −2.5 ppm | Concentration of oxygen detected, Expt1 ppm O2 [2, 8]: 6.3 ppm | Concentration of oxygen detected, Expt2 ppm O2 [2, 8]: 5.2 ppm | Concentration of oxygen detected, avg ppm O2 [2, 8]: 5.8 ppm | Increase from baseline of oxygen, Expt1 ppm O2 [2, 8]: −1.7 ppm | Increase from baseline of oxygen, Expt2 ppm O2 [2, 8]: −3.4 ppm | Increase from baseline of oxygen, avg ppm O2 [2, 8]: −2.6 ppm | Concentration of oxygen detected, Expt1 ppm O2 [2, 9]: 5.8 ppm | Concentration of oxygen detected, Expt2 ppm O2 [2, 9]: 4.7 ppm | Concentration of oxygen detected, avg ppm O2 [2, 9]: 5.3 ppm | Increase from baseline of oxygen, Expt1 ppm O2 [2, 9]: −2.2 ppm | Increase from baseline of oxygen, Expt2 ppm O2 [2, 9]: −3.9 ppm | Increase from baseline of oxygen, avg ppm O2 [2, 9]: −3.1 ppm | Concentration of oxygen detected, Expt1 ppm O2 [2, 10]: 6.5 ppm | Concentration of oxygen detected, Expt2 ppm O2 [2, 10]: 5.1 ppm | Concentration of oxygen detected, avg ppm O2 [2, 10]: 5.8 ppm | Increase from baseline of oxygen, Expt1 ppm O2 [2, 10]: −1.5 ppm | Increase from baseline of oxygen, Expt2 ppm O2 [2, 10]: −3.5 ppm | Increase from baseline of oxygen, avg ppm O2 [2, 10]: −2.5 ppm | total dissolved oxygen (in words) ([2]; produced water): decreased | mpy, 3 hrs after dosing ([3]; produced water (PW)): 17.2 mpy | mpy, 8 hrs after dosing ([3]; produced water (PW)): 16.7 mpy | mpy, Last hour of testing ([3]; produced water (PW)): 18.4 mpy | mpy, 3 hrs after dosing ([3]; sea water): 545.9 mpy | mpy, 8 hrs after dosing ([3]; sea water): 686.9 mpy | mpy, Last hour of testing ([3]; sea water): 739.4 mpy

— patent US10899707B2, “Methods for forming peroxyformic acid and uses thereof” (ECOLAB USA INC., priority 2014, dated 2021)
